This passage reports log2 fold change results from the supplement of paper PMC10849652.

Chains of the proteins cited; added tags and fusions are not shown. Lines headed by an entry give the natural chain unless they say otherwise; changes in a name come on top.
UniProt Q96JJ3: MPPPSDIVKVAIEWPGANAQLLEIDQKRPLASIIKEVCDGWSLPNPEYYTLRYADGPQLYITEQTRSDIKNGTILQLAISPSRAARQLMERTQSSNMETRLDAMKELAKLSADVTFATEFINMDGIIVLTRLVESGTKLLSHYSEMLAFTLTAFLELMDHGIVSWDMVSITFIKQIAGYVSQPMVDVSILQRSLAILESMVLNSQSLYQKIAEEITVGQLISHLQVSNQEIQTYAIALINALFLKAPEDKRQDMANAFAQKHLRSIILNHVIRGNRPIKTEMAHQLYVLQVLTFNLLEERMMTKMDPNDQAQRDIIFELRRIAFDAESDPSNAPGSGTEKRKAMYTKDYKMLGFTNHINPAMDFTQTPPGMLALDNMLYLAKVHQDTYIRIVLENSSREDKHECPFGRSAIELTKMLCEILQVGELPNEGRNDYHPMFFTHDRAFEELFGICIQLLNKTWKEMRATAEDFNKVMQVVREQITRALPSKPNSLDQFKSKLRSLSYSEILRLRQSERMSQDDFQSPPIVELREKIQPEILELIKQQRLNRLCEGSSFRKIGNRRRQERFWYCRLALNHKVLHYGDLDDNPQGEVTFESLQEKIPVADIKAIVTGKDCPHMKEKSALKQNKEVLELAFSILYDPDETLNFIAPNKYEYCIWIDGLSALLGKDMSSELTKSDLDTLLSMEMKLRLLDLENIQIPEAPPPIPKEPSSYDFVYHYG
UniProt Q9BV81: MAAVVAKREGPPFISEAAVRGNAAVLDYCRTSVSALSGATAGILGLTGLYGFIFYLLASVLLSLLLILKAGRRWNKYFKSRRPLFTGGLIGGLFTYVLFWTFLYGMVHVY
UniProt O75616: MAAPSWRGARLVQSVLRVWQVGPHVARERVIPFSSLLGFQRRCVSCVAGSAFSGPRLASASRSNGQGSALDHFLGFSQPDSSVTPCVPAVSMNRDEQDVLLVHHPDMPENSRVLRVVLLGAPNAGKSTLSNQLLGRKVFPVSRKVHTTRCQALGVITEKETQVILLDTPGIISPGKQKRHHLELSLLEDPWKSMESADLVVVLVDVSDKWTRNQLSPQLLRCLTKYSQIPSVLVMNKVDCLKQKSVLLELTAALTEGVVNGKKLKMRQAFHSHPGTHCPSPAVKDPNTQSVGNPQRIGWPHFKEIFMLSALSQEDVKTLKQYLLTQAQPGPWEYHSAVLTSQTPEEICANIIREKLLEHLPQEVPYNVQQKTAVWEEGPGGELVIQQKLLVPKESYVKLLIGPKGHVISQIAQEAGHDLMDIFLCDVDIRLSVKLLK
UniProt Q14249: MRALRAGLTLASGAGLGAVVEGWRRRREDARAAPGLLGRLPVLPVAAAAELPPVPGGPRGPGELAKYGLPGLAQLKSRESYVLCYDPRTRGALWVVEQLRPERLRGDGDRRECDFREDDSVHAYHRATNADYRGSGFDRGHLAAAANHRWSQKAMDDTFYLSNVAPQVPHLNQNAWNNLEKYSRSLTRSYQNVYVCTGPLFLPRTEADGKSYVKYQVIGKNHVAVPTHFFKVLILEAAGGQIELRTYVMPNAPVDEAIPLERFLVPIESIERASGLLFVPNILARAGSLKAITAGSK
UniProt P06730, whole entry, looked up: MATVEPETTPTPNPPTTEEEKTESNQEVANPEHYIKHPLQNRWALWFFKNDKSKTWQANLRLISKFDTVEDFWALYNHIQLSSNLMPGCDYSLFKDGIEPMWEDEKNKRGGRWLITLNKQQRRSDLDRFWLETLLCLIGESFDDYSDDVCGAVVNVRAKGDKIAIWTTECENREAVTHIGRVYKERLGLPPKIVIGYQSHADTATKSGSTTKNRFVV
UniProt O60573: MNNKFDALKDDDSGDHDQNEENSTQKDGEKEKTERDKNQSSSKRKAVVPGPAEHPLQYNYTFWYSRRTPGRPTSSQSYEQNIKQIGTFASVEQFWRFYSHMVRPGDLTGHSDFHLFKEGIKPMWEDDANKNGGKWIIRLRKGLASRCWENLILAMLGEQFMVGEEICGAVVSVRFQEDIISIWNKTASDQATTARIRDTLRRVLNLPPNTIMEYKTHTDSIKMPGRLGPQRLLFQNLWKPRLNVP
UniProt Q92556, whole entry, looked up: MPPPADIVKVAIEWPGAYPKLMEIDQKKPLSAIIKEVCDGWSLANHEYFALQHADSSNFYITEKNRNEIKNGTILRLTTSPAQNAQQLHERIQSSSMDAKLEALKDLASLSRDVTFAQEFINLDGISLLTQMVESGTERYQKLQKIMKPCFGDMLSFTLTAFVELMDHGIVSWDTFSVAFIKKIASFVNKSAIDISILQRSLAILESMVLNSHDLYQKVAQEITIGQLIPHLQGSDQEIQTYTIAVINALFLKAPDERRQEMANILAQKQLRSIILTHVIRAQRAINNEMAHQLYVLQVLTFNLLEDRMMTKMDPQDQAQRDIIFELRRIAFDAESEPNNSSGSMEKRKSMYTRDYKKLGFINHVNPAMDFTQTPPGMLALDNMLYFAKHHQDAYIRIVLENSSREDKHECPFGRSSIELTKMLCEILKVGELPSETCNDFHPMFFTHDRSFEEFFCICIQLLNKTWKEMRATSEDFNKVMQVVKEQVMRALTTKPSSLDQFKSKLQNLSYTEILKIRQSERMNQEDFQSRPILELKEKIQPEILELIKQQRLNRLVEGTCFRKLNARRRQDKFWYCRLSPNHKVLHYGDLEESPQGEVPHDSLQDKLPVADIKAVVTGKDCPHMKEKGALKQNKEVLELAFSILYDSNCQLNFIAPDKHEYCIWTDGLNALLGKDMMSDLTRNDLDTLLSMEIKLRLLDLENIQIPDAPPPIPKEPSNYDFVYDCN
UniProt P42566: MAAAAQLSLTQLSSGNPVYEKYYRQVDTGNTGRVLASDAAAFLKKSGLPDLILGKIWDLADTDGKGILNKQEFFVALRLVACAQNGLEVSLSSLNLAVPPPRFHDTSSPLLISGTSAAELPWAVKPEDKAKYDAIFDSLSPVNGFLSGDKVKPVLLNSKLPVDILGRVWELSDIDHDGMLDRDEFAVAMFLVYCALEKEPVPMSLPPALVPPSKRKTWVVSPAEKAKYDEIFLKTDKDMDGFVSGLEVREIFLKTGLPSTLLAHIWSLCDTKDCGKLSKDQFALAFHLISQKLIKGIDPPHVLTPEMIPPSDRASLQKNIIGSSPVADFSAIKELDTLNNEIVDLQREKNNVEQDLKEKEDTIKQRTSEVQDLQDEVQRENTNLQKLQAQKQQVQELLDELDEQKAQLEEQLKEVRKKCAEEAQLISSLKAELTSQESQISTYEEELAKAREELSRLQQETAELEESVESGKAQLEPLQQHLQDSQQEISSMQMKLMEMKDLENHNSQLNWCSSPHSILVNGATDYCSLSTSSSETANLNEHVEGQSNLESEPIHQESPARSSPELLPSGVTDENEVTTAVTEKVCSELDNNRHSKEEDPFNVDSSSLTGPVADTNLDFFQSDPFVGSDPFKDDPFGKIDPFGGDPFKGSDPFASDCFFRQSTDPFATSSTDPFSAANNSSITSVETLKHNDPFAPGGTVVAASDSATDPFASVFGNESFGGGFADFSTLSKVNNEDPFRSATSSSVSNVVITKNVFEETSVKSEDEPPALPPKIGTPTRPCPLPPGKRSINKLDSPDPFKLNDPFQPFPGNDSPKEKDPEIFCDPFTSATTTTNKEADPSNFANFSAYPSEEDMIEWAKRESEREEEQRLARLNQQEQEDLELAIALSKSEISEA
UniProt Q92889: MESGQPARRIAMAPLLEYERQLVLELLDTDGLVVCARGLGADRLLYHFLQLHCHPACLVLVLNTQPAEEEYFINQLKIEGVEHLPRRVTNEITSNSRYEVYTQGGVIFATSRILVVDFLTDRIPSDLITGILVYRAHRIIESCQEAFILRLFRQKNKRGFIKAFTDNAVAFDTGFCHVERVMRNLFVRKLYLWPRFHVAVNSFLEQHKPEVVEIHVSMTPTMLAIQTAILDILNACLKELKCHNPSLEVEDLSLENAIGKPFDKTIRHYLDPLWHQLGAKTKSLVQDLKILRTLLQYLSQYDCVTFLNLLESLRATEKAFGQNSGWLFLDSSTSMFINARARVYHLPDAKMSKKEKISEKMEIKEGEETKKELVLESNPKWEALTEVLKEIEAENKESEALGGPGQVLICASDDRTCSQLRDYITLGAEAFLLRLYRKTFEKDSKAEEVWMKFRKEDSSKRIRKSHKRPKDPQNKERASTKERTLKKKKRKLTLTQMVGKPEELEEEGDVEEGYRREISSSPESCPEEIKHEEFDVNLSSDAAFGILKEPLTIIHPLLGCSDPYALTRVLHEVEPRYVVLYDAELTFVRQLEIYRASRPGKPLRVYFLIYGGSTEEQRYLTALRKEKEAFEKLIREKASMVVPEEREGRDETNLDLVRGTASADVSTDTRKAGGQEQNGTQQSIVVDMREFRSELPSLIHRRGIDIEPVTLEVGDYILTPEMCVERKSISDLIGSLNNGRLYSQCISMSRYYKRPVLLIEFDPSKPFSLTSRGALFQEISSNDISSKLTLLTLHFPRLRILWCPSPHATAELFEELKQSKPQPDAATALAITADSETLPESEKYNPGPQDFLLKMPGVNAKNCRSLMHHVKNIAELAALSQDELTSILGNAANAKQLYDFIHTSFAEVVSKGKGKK
UniProt Q8N766: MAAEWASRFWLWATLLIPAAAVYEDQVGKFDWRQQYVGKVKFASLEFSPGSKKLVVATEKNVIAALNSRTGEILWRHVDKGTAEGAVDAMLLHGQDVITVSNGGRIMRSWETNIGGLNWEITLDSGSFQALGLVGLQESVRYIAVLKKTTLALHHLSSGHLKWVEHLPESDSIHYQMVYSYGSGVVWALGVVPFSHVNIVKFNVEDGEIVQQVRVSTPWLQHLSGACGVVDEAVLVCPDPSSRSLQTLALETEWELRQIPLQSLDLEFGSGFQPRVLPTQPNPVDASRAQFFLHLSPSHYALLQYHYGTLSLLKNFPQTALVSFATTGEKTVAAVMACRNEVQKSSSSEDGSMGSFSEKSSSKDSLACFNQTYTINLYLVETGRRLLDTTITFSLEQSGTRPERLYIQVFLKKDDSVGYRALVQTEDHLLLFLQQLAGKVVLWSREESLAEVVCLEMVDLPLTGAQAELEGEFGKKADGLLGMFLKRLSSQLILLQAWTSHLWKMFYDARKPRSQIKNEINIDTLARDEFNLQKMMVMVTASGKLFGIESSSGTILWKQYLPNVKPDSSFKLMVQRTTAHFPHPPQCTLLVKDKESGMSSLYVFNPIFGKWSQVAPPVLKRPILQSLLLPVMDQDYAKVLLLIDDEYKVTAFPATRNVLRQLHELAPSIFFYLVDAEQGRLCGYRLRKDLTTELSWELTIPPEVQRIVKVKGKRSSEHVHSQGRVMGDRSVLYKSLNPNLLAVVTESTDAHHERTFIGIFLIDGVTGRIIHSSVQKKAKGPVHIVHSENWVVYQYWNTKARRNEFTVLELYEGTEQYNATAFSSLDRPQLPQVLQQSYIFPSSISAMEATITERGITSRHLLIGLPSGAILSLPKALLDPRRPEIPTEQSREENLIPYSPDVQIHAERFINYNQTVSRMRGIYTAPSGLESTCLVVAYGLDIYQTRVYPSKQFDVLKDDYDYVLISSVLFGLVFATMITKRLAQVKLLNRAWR
UniProt Q9H5J4: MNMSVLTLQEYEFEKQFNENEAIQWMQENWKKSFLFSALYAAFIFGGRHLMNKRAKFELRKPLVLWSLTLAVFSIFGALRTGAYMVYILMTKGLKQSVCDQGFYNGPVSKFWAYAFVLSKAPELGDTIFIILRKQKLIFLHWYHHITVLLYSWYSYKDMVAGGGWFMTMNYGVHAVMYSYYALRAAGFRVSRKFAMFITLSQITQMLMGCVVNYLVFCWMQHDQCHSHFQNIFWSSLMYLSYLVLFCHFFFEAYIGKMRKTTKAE
UniProt Q9UBQ5, whole entry, looked up: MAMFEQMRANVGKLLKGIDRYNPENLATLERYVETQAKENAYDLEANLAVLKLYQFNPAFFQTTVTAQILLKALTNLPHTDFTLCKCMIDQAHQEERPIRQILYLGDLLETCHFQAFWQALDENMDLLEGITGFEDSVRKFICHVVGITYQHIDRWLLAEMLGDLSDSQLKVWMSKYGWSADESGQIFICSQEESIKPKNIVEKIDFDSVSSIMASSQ
UniProt P50548: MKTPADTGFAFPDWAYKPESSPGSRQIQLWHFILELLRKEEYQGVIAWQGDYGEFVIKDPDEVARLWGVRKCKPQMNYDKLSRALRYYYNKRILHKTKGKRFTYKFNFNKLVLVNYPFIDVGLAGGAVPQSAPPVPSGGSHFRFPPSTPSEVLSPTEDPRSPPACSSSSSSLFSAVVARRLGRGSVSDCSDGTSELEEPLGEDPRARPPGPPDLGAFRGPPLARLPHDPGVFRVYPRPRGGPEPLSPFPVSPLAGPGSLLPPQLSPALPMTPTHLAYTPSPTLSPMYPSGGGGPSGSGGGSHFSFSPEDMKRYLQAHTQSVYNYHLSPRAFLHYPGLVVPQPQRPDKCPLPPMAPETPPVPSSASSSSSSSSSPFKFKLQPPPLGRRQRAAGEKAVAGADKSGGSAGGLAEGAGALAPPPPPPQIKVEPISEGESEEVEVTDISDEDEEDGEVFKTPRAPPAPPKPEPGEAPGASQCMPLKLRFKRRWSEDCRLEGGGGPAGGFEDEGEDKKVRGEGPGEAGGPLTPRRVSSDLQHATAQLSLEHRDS

The list shows a part of the results.

Compound in this assay: O=C1NC(=O)C(c2cnc3ccccn23)=C1c1cn2c3c(cc(F)cc13)CN(C(=O)N1CCCCC1)CC2
Briefly: log2 fold change, soluble protein after heating vs DMSO (PISA); higher = thermal stabilisation; K562 lysate, 10 uM; active = over 0.2 and 3.5 SD of the protein, either way, in both replicates (recomputed). The gist of the method: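 Dounce homogenisation of K562 pellets in PBS pH 7.4 with 1 mM MgCl2 produced a crude extract, used at 1 mg/mL protein. Exposure to 10 μM compound lasted 30 min, and aliquots were then heated for 3 min across 48°C-58°C, pooled and brought to 0.5% NP-40 at 4°C. The supernatant after 21,000xg for 90 min was quantified by TMTpro 16plex LC-MS/MS with channel sums equalised. Duplicate values are given as log-two fold change in thermal stability relative to solvent controls.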
Regarding ELMO2 (UniProt Q96JJ3), the log2 fold change was inactive: 0.203.
With EP400 isoform 5 (UniProt Q96L91) the figure was inactive: -0.025; with EMC10 (UniProt Q5UCC4), inactive: 0; with EIF4G3, A0A0U1RQK7, inactive: -0.045.
The figure for EMC6 (UniProt Q9BV81) is inactive: 0.08; for ERAL1 (UniProt O75616) it is inactive: -0.044.
ENDOG (UniProt Q14249): the log2 fold change is inactive: -0.026.
The figure for EIF4E isoform 2 (UniProt P06730) is inactive: -0.006.
Consider EIF4EBP1 (UniProt Q13541), for which the log2 fold change was inactive: -0.001.
For the target ELP4 (UniProt Q96EB1), the log2 fold change is inactive: 0.016.
With EIF4E2 (UniProt O60573) the figure was inactive: 0.038; with ELMO1 (UniProt Q92556), inactive: -0.044; with EPS15 (UniProt P42566), inactive: -0.031.
The figure for ERCC4 (UniProt Q92889) is inactive: -0.065; for EMC1 (UniProt Q8N766) it is inactive: -0.013; for ELOVL6 (UniProt Q9H5J4) it is inactive: 0.043.
The figure for ELOB (UniProt Q15370) is inactive: 0.041.
EIF3K (UniProt Q9UBQ5): the log2 fold change is inactive: 0.045.
The figure for EPB41L2 (UniProt O43491) is inactive: -0.007; for ELF2 (UniProt Q15723) it is inactive: -0.011.
The figure for EMP3 (UniProt P54852) is inactive: -0.014; for ERF (UniProt P50548) it is inactive: -0.015.
On to EIF2B5 (UniProt Q13144), for which the log2 fold change was inactive: -0.029.
